Measurements: article PMC7819943, “Rice protein-binding microarrays: a tool to detect cis-acting elements near promoter regions in rice”
Some of the results follow.

Target: T1, OsSMF1 (Oryza sativa, UniProt Q6ZLB0 1-436)
T1 sequence: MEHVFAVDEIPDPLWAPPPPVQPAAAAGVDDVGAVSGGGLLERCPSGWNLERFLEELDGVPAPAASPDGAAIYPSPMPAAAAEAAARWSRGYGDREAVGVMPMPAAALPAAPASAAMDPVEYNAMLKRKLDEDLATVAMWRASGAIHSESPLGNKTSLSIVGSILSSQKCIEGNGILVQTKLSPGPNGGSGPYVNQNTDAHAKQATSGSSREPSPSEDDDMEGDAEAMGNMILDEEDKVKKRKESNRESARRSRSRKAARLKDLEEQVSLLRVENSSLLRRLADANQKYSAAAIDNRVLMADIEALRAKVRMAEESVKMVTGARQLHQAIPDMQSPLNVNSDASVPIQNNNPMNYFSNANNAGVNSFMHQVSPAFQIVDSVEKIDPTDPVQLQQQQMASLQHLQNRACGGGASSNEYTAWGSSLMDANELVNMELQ
Assay: protein-binding microarray (RPBM); PBS, 2% BSA, 51.3 ng/ul salmon testes DNA, 50 uM zinc acetate, 200 nM TF, 25 C, 1 h; high values mean tight binding
Conditions: protein: recombinant; tags: N-terminal polyhistidine and DsRed monomer fusion (pET32a); chain copies: 2; label: CyDye5-dUTP incorporated in the synthesized complementary strand; 3' TTTTT single-stranded linker to array surface; dsDNA, one strand shown
How it was run: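 Binding signal here means per-feature fluorescence intensity in arbitrary units. The values were read on an Axon 4000B scanner after a custom Agilent array, double-stranded by primer extension with Cy5-dUTP, was incubated with 200 nM protein at 25 °C for 1 h in PBS with 2% BSA, salmon testes DNA and 50 µM zinc acetate, then washed. The proteins were transcription factors with an N-terminal polyhistidine tag and DsRed, expressed in E. coli BL21-CodonPlus and purified on Ni–NTA.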

| Sequence | binding signal |
| --- | --- |
| ACAAACAGTACGACGTGACGTGGCAAAGTATCGTCCATCACGGAGTCACCTAGTGCAG | 20800 fluorescence intensity (a.u.) |
| TTATCAACCAAACCTCACGGTTGCATCACCCAGGATGTGTCGGAGTCACCTAGTGCAG | 4540 fluorescence intensity (a.u.) |
| AGCAAGCAATTGCACATCACTCGACAGTCCACACAGTGCACGGAGTCACCTAGTGCAG | 3620 fluorescence intensity (a.u.) |
| TTGTGGTCCTGTCGTCATCCTGTGGAGTTGTGGTGAGTGTCGGAGTCACCTAGTGCAG | 4280 fluorescence intensity (a.u.) |
| TCCCGACGTGCGTCATCAAGGTGTACCACGCCGCGAGATCCGGAGTCACCTAGTGCAG | 5280 fluorescence intensity (a.u.) |
| GGGCTGCTGGTTTCCAAGGATAATAAACGCACGACGACCCCGGAGTCACCTAGTGCAG | 3430 fluorescence intensity (a.u.) |
| GTGCGAGATCTAGCTAGCTATACGGAGTTGTGTGACAGTCCGGAGTCACCTAGTGCAG | 17800 fluorescence intensity (a.u.) |
| GAGGCAAAACGGCAGACGTGTGCACGTATCACGGTGATAGCGGAGTCACCTAGTGCAG | 7200 fluorescence intensity (a.u.) |
| TTTGCATCTCGATGAGTTGTACAACTTTGATTTTGGTGACCGGAGTCACCTAGTGCAG | 3860 fluorescence intensity (a.u.) |
| AATAAAGGTCACATCCACGTTGACAAGTCAGAAAAGGGTACGGAGTCACCTAGTGCAG | 6520 fluorescence intensity (a.u.) |
| CGTATCTCATCTTTTCGTTTATACTTATACTTATCAGTCACGGAGTCACCTAGTGCAG | 3230 fluorescence intensity (a.u.) |
| TATCATACAAATGACGACACCACACAAACGGCGGCCCAAGCGGAGTCACCTAGTGCAG | 4320 fluorescence intensity (a.u.) |
| TGGTTCATCACGTCAGTGTCTTACGGCTGCAGACTGCGCCCGGAGTCACCTAGTGCAG | 4960 fluorescence intensity (a.u.) |
| CAGATTCAGCTCATCACTTCAAAATCATAGGCTTAAAGCGCGGAGTCACCTAGTGCAG | 5570 fluorescence intensity (a.u.) |
| CTCACTCAAACTTGTCCACGTATGTGAATAGCCGAATCAGCGGAGTCACCTAGTGCAG | 6780 fluorescence intensity (a.u.) |
| CTGGCTTGCAACTACTACCCGTTAAGACCACGCGCGCCTCCGGAGTCACCTAGTGCAG | 3280 fluorescence intensity (a.u.) |
| GCCGGCCGCTCATCGGGATGGCGCGGCGGAGGCGGTGGGGCGGAGTCACCTAGTGCAG | 4890 fluorescence intensity (a.u.) |
| CTTCAGTCCTTTTCCATCACATCAACCTGTCATACACACACGGAGTCACCTAGTGCAG | 3470 fluorescence intensity (a.u.) |
| TCCCAGGGGTATTTTGGTCATTTGGATAAAATTATATAGTCGGAGTCACCTAGTGCAG | 3270 fluorescence intensity (a.u.) |
| AGCTCTCTGTCGCTGTTCGGGAGTGCGCATTCTGTTTGCCCGGAGTCACCTAGTGCAG | 34600 fluorescence intensity (a.u.) |
| TTTTAATCCGAGTTTCAGACCACGATGGCCATTTGTTTCGCGGAGTCACCTAGTGCAG | 3460 fluorescence intensity (a.u.) |

Part of the list above, with tabs:
Sequence	binding signal
ACAAACAGTACGACGTGACGTGGCAAAGTATCGTCCATCACGGAGTCACCTAGTGCAG	20800 fluorescence intensity (a.u.)
TTATCAACCAAACCTCACGGTTGCATCACCCAGGATGTGTCGGAGTCACCTAGTGCAG	4540 fluorescence intensity (a.u.)
AGCAAGCAATTGCACATCACTCGACAGTCCACACAGTGCACGGAGTCACCTAGTGCAG	3620 fluorescence intensity (a.u.)

More entries follow.

| Sequence | binding signal |
| --- | --- |
| AGCAAATTTTGCCATGTCACATCGACATCATCCCGGCACGCGGAGTCACCTAGTGCAG | 13600 fluorescence intensity (a.u.) |
| ATCAACTGATCCTGACTCCGTTACCACCCGGCATATTGTTCGGAGTCACCTAGTGCAG | 4000 fluorescence intensity (a.u.) |
| GAGGAGGCGTCGGCGTCACGGCGGACAGCGATGGGGTGCGCGGAGTCACCTAGTGCAG | 3320 fluorescence intensity (a.u.) |
| CTATTGGGCTTGCAAGCACACGCTGACGTACTTTGCGCCACGGAGTCACCTAGTGCAG | 5160 fluorescence intensity (a.u.) |
| GACTCCACCAAGAACACAACTGCTGACGATTTGACGACTCCGGAGTCACCTAGTGCAG | 3380 fluorescence intensity (a.u.) |
| CCATTGGGCCATGTGGCCCGTAACAGCAGCCTTGTTTCGACGGAGTCACCTAGTGCAG | 3840 fluorescence intensity (a.u.) |
| GTACTGCAGAGGATCTCAATTGTCCAAAGAGATATGTACACGGAGTCACCTAGTGCAG | 3210 fluorescence intensity (a.u.) |
| TTGCCCAAGAGCTGACCCAACTCATTAAAATTACGCTTCTCGGAGTCACCTAGTGCAG | 3190 fluorescence intensity (a.u.) |
| GCTAAGAGGCCCGCTGCCACGCCACCCCGGCCACCTCAGCCGGAGTCACCTAGTGCAG | 14000 fluorescence intensity (a.u.) |
| GTGGCCGATGCTGACGACCTCCGCGATGAACTCCTTCATCCGGAGTCACCTAGTGCAG | 3170 fluorescence intensity (a.u.) |
| TTTATAGGATTTCTTATATAGATACCAAAATTTGACAGAACGGAGTCACCTAGTGCAG | 35700 fluorescence intensity (a.u.) |
| AGGGAAGGGTAATATATGTCAATTTGTGATTATACTGTTTCGGAGTCACCTAGTGCAG | 3140 fluorescence intensity (a.u.) |
| GCTGGTTTGGATTTCTCAGCTCAGCACCAAGCTGATGACGCGGAGTCACCTAGTGCAG | 4780 fluorescence intensity (a.u.) |
| AATGATAAGGTTTGATATTTTAAAGTCTTAAGAAAACGAGCGGAGTCACCTAGTGCAG | 3200 fluorescence intensity (a.u.) |
| AATATAGAAGGTACACTCCATTTGCACACTAGGTACAGAACGGAGTCACCTAGTGCAG | 6080 fluorescence intensity (a.u.) |
| TCTTCCTCATCGGCCGCGGGGCCGACGCGCTCACCGGCGTCGGAGTCACCTAGTGCAG | 3290 fluorescence intensity (a.u.) |
| CCCTCGCCTTCTCCGATTTCCCTCGCGTGGAATCCCCTTGCGGAGTCACCTAGTGCAG | 3140 fluorescence intensity (a.u.) |
| ACACCATGCGTATGATGCAATACCTATTGACTCCATTGAACGGAGTCACCTAGTGCAG | 3380 fluorescence intensity (a.u.) |
| TTTGGTTAGTGAATTTAGCTATCCTCTCCTTGACTTCCTACGGAGTCACCTAGTGCAG | 3660 fluorescence intensity (a.u.) |
| TCAGGAATTGGACGGCCAGGATTTCTCCACACCATTGCCACGGAGTCACCTAGTGCAG | 3420 fluorescence intensity (a.u.) |
| GAGCAAGCTCTCTCAAGCTCGGGCACTTTTGGCGAACGTGCGGAGTCACCTAGTGCAG | 3570 fluorescence intensity (a.u.) |
